From patent US10864179B2, “Histone deacetylase inhibitors for the use in the treatment of drug resistant melanoma” (STICHTING HET NEDERLANDS KANKER INSTITUUT-ANTONI VAN …, priority 2015, dated 2020)
At least one structure is not confirmed: it was looked up by name or label, or the drawing left a doubt.

Tests used:
[1] = test system: p-MEK in A375R cells; assay: Western blot of MAP kinase signaling, A375R cells; format: cell-based, human; conditions: A375R cells versus parental A375
[2] = test system: 4397A, 4397B, 4393R and 4393L cells; assay: Long-term colony formation assay, ex vivo PLX4720-resistant A375 clones; format: cell-based, human; conditions: four cell lines with in vivo acquired PLX4720 resistance
Description: FIG. 8. In vitro and ex vivo BRAF inhibitor-resistant clones are hypersensitive to HDACi.
We explanted four PLX4720 resistant tumors from mice immediately after acquisition of PLX4720 resistance in vivo and continued to culture these cells in vitro in the presence of BRAF inhibitor. These cells were designated 4397A, 4397B, 4393R and 4393L.

Row | Structure (SMILES) | p-MEK levels under vemurafenib [1] | sensitivity of cells to HDACi [2]
1 | CCCS(=O)(=O)Nc1ccc(F)c(C(=O)c2c[nH]c3ncc(-c4ccc(Cl)cc4)cc23)c1F [vemurafenib] | maintain higher levels of p-MEK than parental A375 cells | 
2 | C/C=C1\NC(=O)[C@H]2CSSCC/C=C/[C@H](CC(=O)N[C@H](C(C)C)C(=O)N2)OC(=O)[C@H](C(C)C)NC1=O [romidepsin] |  | very sensitive
